Measurements reported in PubChem BioAssay AID2685 (National Center for Advancing Translational Sciences (NCATS), 2010).
The other results are listed elsewhere or left out. Further columns of the screen follow, without active or inactive calls. Most of these compounds were active or inconclusive in the main read-out, so they are no random draw. Potencies come from curve fits of mixed quality, noted in brackets.

Assay: qHTS Assay for Lipid Storage Modulators in Drosophila S3 Cells;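 as to cell number change: cells counted by Cell Tracker Red CMTPX staining in the red channel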
Conditions: BODIPY lipid droplet fluorescence, 18-24 h; for cell number change: measured here: cell count max response, cells fed with added oleic acid
Procedure, shortened: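 Drosophila S3 cells got compounds at several concentrations plus oleic acid (400 uM solution). Laser-scanning cytometry with 488 nm excitation read lipid droplets at 500-530 nm and cells at 575-640 nm. Percent activity was relative to 20 uM Triacsin C.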

[1] = measured here: cell number channel AC50, cells fed with added oleic acid
[2] = measured here: lipid fluorescence (Fed channel) AC50, cells fed with added oleic acid

Row | Compound | cell number change | AC50 [1] | AC50 [2]
1 | O=C(NC1CCCCCC1)c1ccc(S(=O)(=O)NCc2ccco2)cc1 | 57.9% | 20.6 µM [rising, single point] | –
2 | Cc1ccc(/C=[N+](\[O-])c2ccc(N(C)C)cc2)c2nsnc12 | -15.3% | 6.51 µM [rising, single point] | 4.61 µM [falling, single point]
3 | COc1cccc(-c2ccc(NC(=O)C3CCCN(Cc4cc(C)[nH]n4)C3)cc2)c1 (stereo unspecified) | 8.42% | – | 11.6 µM [falling, single point]
4 | Cc1ccc(-n2ncc3c(N4CCC5(CC4)OCCO5)ncnc32)c(C)c1 | -76.1% | 20.6 µM [falling, single point] | –
5 | COc1cccc2c(SCC(=O)N/N=C/c3ccc(O)c(O)c3)cc(C)nc12 | 27.2% | – | 3.66 µM [rising, partial curve]
6 | Cn1nnnc1SCc1cc(=O)n2ccsc2n1 | 6.11% | – | 0.184 µM [rising, full curve, poor fit]
7 | COc1ccc2cc3c(N)nn(C(=O)c4ccc(F)cc4)c3nc2c1 | 14% | – | 0.184 µM [rising, full curve]
8 | CC1=NC(=O)C(N=Nc2ccccc2)N1c1ccccc1 (stereo unspecified) | -35.9% | 20.6 µM [falling, partial curve, poor fit] | 14.6 µM [falling, partial curve, poor fit]
9 | O=C(NCC(=O)N1CCC2(CC1)NCCc1[nH]cnc12)c1ccc(Br)cc1 | -1.98% | – | 0.326 µM [rising, partial curve, poor fit]
10 | CCN(CC)c1ccc(NC(=O)CN(C)Cc2cccs2)cc1 | 15.4% | – | –
11 | O=C1C2CC=C(Cl)CC2C(=O)N1CCCCCCN1C(=O)C2CC=C(Cl)CC2C1=O (stereo unspecified) | -26.7% | – | 0.82 µM [falling, full curve, poor fit]
12 | COc1ccc(C(=O)NCCCNC(=O)c2cnccn2)cc1 | 16.2% | – | 0.13 µM [falling, full curve, poor fit]
13 | CC(C)CC(=O)N1CC(=O)Nc2ccc(F)cc2C1c1ccccc1 (stereo unspecified) | -45% | – | –
14 | COc1ccccc1NC(=O)NN1CCCCC1 | – | – | 0.82 µM [falling, full curve]
15 | COc1cccc(CN2CC(C(=O)NC3CCC(O)CC3)CCC2=O)c1 (stereo unspecified) | 16.3% | – | –
16 | CCOc1ccc(N2CC(C(=O)Nc3ccc(S(=O)(=O)Nc4ncccn4)cc3)CC2=O)cc1 (stereo unspecified) | -31.2% | 6.51 µM [falling, full curve, poor fit] | 5.8 µM [falling, full curve]
17 | Cc1nc2cc(-c3ccc(Br)cc3)[nH]n2c(=O)c1Cl | -22.5% | – | 6.51 µM [rising, single point]
18 | CCOc1ccc(Nc2nc(Cc3nnc(SCC(N)=O)o3)cs2)cc1 | 13.5% | – | 3.66 µM [falling, partial curve]

Row | Compound | cell number change | AC50 [1] | AC50 [2]
19 | CS(=O)(=O)c1ccc(Cl)c(NC(=O)COC(=O)CNC(=O)c2cccs2)c1 | -7.53% | – | 29.1 µM [rising, single point]
20 | O=C(NCCCN1CCCC1=O)c1sc2ccccc2c1Cl | -53.3% | 8.2 µM [falling, partial curve] | 5.17 µM [falling, partial curve]
21 | CCN1CCCC1CNC(=O)CSCc1nc(-c2ccccc2C)oc1C (stereo unspecified) | 19% | – | 18.4 µM [rising, single point]
22 | CCOC(=O)CCc1c(C)c(C#N)c2nc3ccccc3n2c1-n1ccnc1 | – | 2.31 µM [rising, partial curve] | 2.91 µM [rising, full curve]
23 | COc1ccccc1NCN1C(=O)CCC1=O | 8.38% | – | 29.1 µM [rising, single point]
24 | COc1cc(NC(=O)c2ccc(Cl)cc2)c(OC)cc1Cl | 89.3% | 29.1 µM [rising, single point] | 6.51 µM [rising, partial curve]
25 | COc1ccc(C(=O)Nc2nnc(SCC(=O)NCc3ccco3)s2)c(OC)c1 | 1.39% | – | –
26 | O=C(NC(=S)N1CCN(c2c(Cl)cccc2[N+](=O)[O-])CC1)c1cccs1 | 34.4% | 29.1 µM [rising, single point] | 20.6 µM [rising, single point]
27 | CC(=O)c1c(C)[nH]c(C(=O)OCC(=O)N(Cc2ccccc2)C(C)(C)C)c1C | -10.9% | – | 18.4 µM [falling, single point]
28 | CCCS(=O)(=O)N1CCCC(C(=O)NCC2CCCO2)C1 (stereo unspecified) | -19.6% | 2.91 µM [falling, single point] | –
29 | COc1cc(SC)ccc1C(=O)OCC(=O)NC1CCCC1 | 56.2% | – | –
30 | CC(c1ccccc1)n1c(-c2ccc(C(C)(C)C)cc2)n[nH]c1=S (stereo unspecified) | -37% | 14.6 µM [falling, partial curve, poor fit] | 6.51 µM [falling, single point]
31 | CN(C)CCCn1c(SCC(=O)N2c3ccccc3Sc3ccccc32)nc2ccccc2c1=O | -52.4% | 14.6 µM [falling, single point] | 16.4 µM [falling, single point]
32 | CC1(C)N(OCc2ccccc2)C(=O)C(=O)N(OCc2ccccc2)C1(C)C | -16.6% | – | 11.6 µM [falling, single point]
33 | COc1ccc(CN(C(=O)c2snc(C(N)=O)c2N)C(C(=O)NC2CCCC2)c2ccco2)cc1 (stereo unspecified) | 0.427% | – | 4.11 µM [falling, single point]
34 | Cc1ccc(S(=O)(=O)N2CCN(c3ccccc3)CC2)cc1C | 7.12% | 2.06 µM [rising, partial curve, poor fit] | 10.3 µM [falling, single point]
35 | N#Cc1ccccc1OCC(=O)Nc1cccc(S(=O)(=O)N2CCCC2)c1 | -3.21% | – | 0.731 µM [falling, full curve, poor fit]
36 | CC(Oc1cc(F)ccc1[N+](=O)[O-])C(=O)Nc1ccc(S(=O)(=O)N2CCCC2)cc1 (stereo unspecified) | 8.53% | 6.51 µM [rising, single point] | 3.26 µM [rising, partial curve]

An excerpt from above with just cell number change and AC50 [1]:
Row | Compound | cell number change | AC50 [1]
18 | CCOc1ccc(Nc2nc(Cc3nnc(SCC(N)=O)o3)cs2)cc1 | 13.5% | –
24 | COc1cc(NC(=O)c2ccc(Cl)cc2)c(OC)cc1Cl | 89.3% | 29.1 µM [rising, single point]
25 | COc1ccc(C(=O)Nc2nnc(SCC(=O)NCc3ccco3)s2)c(OC)c1 | 1.39% | –
